Some results were stated once for a whole list of compounds, not compound by compound. At least one compound was matched to its structure with a doubt left.
Legend:
Assay type in all cases: in vivo
Heliothis virescens = test: B.4 Tobacco Budworm, microtiter plate diet test; details: 2500 ppm; egg and larval mortality, 5 days
Description: For evaluating control of Tobacco Budworm, the test unit consisted of 96-well-microtiter plates containing an insect diet and 15-25 H. virescens eggs. The compounds were formulated using a solution containing 75% v/v water and 25% v/v DMSO. Different concentrations of formulated compounds were sprayed onto the insect diet at 10 μl, using a custom-built micro atomizer, at two replications. After application, microtiter plates were incubated at about 28±1° C. and about 80±5% relative humidity for 5 days. Egg and larval mortality was then visually assessed.

Aedes aegypti = details: 2500 ppm; larval mortality, 2 days
Description: For evaluating control of Yellow Fever Mosquito, the test unit consisted of 96-well-microtiter plates containing 200 μl of tap water per well and 5-15 freshly hatched A. aegypti larvae. The active compounds were formulated using a solution containing 75% (v/v) water and 25% (v/v) DMSO. Different concentrations of formulated compounds or mixtures were sprayed onto the insect diet at 2.5 μl, using a custom-built micro atomizer, at two replications.
After application, microtiter plates were incubated at 28±1° C., 80±5% RH for 2 days. Larval mortality was then visually assessed.

Plutella xylostella = test: B.6 Diamond Back Moth, cabbage leaf disc dip test; details: 300 ppm; 3rd instar larvae, 72 hours after treatment
Description: The active compound was dissolved at the desired concentration in a mixture of 1:1 (vol:vol) distilled water:acetone. Surfactant (Kinetic) was added at a rate of 0.01% (vol/vol). The test solution was prepared at the day of use. Cabbage leaf discs (60 mm in diameter) were dipped in test solution and air-dried. Treated leaves were placed in petri dishes lined with moistened filter paper and inoculated with ten 3rd instar larvae. Mortality was recorded 72 hours after treatment. Feeding damages were also recorded using a scale of 0-100%.

Dichromothrips corbetti = test: B.7 Orchid Thrips, floral-immersion test; details: 300 ppm; adult thrips, 72 hours after treatment
Description: Dichromothrips corbetti adults used for bioassay were obtained from a colony maintained continuously under laboratory conditions. For testing purposes, the test compound was diluted in a 1:1 mixture of acetone:water (vol:vol), plus Kinetic at a rate of 0.01% v/v.
Thrips potency of each compound was evaluated by using a floral-immersion technique. Each orchid petal was dipped into treatment solution and allowed to dry in Petri dishes. Treated petals were placed into individual re-sealable plastic along with about 20 adult thrips. All test arenas were held under dark condition and a temperature of about 28° C. for duration of the assay. The percent mortality was recorded 72 hours after treatment.

Anthonomus grandis = test: B.1 Boll weevil (Anthonomus grandis), 96-well microtiter plate diet test; details: 2500 ppm; egg and larval mortality, 5 days
Description: For evaluating control of boll weevil, the test unit consisted of 96-well-microtiter plates containing an insect diet and 5-10 A. grandis eggs.
The compounds were formulated using a solution containing 75% v/v water and 25% v/v DMSO. Different concentrations of formulated compounds were sprayed onto the insect diet at 5 μl, using a custom-built micro atomizer, at two replications.
After application, microtiter plates were incubated at about 25±1° C. and about 75±5% relative humidity for 5 days. Egg and larval mortality were then visually assessed.

Myzus persicae = test: B.3 Green Peach Aphid (mixed life stages), systemic artificial diet test; details: 2500 ppm; treated aphid diet, 3 days
Source text: For evaluating control of Green Peach Aphid through systemic means the test unit consisted of 96-well-microtiter plates containing liquid artificial diet under an artificial membrane. The compounds were formulated using a solution containing 75% v/v water and 25% v/v DMSO. Different concentrations of formulated compounds were pipetted into the aphid diet, using a custom-built pipette, at two replications. After application, 5-8 adult aphids were placed on the artificial membrane inside the microtiter plate wells. The aphids were then allowed to suck on the treated aphid diet and incubated at about 23±1° C. and about 50±5% relative humidity for 3 days. Aphid mortality and fecundity was then visually assessed.

Measured: mortality in comparison with untreated controls

CCN1OC[C@@H](NC(=O)C(F)(F)c2cc(NC3=NOC(c4cc(Cl)c(F)c(Cl)c4)(C(F)(F)F)C3)ccc2C)C1=O (some centres unmarked) [III-3]
at least 75%: Heliothis virescens | Aedes aegypti | Plutella xylostella

O=C(Nc1ccc(F)cc1F)c1cc(NC2=NOC(c3cc(Cl)cc(Cl)c3)(C(F)(F)F)C2)ccc1Cl (centres unmarked) [I-136]
at least 75%: Heliothis virescens | Dichromothrips corbetti | Aedes aegypti | Plutella xylostella | Anthonomus grandis

O=C(Nc1ccc(F)c(NC(=O)C(F)(F)Cl)c1F)c1cc(NC2=NOC(c3cc(Cl)cc(Cl)c3)(C(F)(F)F)C2)ccc1Cl (centres unmarked) [I-15]
at least 75%: Heliothis virescens | Aedes aegypti | Plutella xylostella | Anthonomus grandis | Myzus persicae

COc1ccc(NC2=NOC(c3cc(Cl)cc(Cl)c3)(C(F)(F)F)C2)cc1C(=O)Nc1ccc(F)cc1F (centres unmarked) [I-91]
at least 75%: Heliothis virescens | Dichromothrips corbetti | Plutella xylostella | Anthonomus grandis

CCN1OCC(NC(=O)c2cc(NC3=NOC(c4cc(Cl)cc(Cl)c4)(C(F)(F)F)C3)ccc2Cl)C1=O (centres unmarked) [I-141]
at least 75%: Plutella xylostella | Anthonomus grandis

CCN(C(=O)c1cc(N(C)C2=NOC(c3cc(Cl)c(F)c(Cl)c3)(C(F)(F)F)C2)ccc1Cl)c1ccccc1 (centres unmarked) [I-117]
at least 75%: Heliothis virescens | Dichromothrips corbetti | Aedes aegypti | Plutella xylostella | Anthonomus grandis

CN(C1=NOC(c2cc(Cl)cc(Cl)c2)(C(F)(F)F)C1)c1ccc(Cl)c(C(=O)Nc2cc(Cl)ccn2)c1 (centres unmarked) [I-134]
at least 75%: Heliothis virescens | Dichromothrips corbetti | Aedes aegypti | Plutella xylostella | Anthonomus grandis

CCN1OC[C@@H](NC(=O)c2ccc(NC3=NOC(c4cc(Cl)cc(Cl)c4)(C(F)(F)F)C3)cc2Cl)C1=O (some centres unmarked) [I-17]
at least 75%: Dichromothrips corbetti | Aedes aegypti | Myzus persicae

CN(C1=NOC(c2cc(Cl)cc(Cl)c2)(C(F)(F)F)C1)c1ccc(Cl)c(C(=O)Nc2cc(C#N)ccn2)c1 (centres unmarked) [I-124]
at least 75%: Heliothis virescens | Dichromothrips corbetti | Aedes aegypti | Plutella xylostella | Anthonomus grandis

O=C(NC1(C(F)(F)F)CCC1)c1cc(NC2=NOC(c3ccc(F)c(Cl)c3)(C(F)(F)F)C2)ccc1Cl (centres unmarked) [I-54]
at least 75%: Dichromothrips corbetti | Plutella xylostella

O=C(Nc1ccc(F)nn1)c1cc(NC2=NOC(c3cc(Cl)c(F)c(Cl)c3)(C(F)(F)F)C2)ccc1Cl (centres unmarked) [I-51]
at least 75%: Dichromothrips corbetti | Plutella xylostella

O=C(NCc1ccccn1)c1ccc(NC2=NOC(c3cc(Cl)cc(Cl)c3)(C(F)(F)F)C2)cc1Cl (centres unmarked) [I-16]
at least 75%: Heliothis virescens | Dichromothrips corbetti | Aedes aegypti | Anthonomus grandis

O=C(NC1CC1)c1cc(NC2=NOC(c3cc(Cl)c(F)c(Cl)c3)(C(F)(F)F)C2)ccn1 (centres unmarked) [I-172]
at least 75%: Heliothis virescens | Aedes aegypti | Plutella xylostella | Anthonomus grandis

COc1ccc(NC2=NOC(c3cc(Cl)cc(Cl)c3)(C(F)(F)F)C2)cc1C(=O)NCC(F)(F)F (centres unmarked) [I-92]
at least 75%: Dichromothrips corbetti | Plutella xylostella

CCN1OCC(NC(=O)c2cc(N(C)C3=NOC(c4cc(Cl)cc(Cl)c4)(C(F)(F)F)C3)ccc2Cl)C1=O (centres unmarked) [I-144]
at least 75%: Dichromothrips corbetti | Aedes aegypti | Plutella xylostella

Cc1ccc(NC2=NOC(c3cc(Cl)c(F)c(Cl)c3)(C(F)(F)F)C2)cc1C(F)(F)C(=O)NC1(C#N)CC1 (centres unmarked) [III-4]
at least 75%: Heliothis virescens | Plutella xylostella | Anthonomus grandis | Myzus persicae

N#CC1(NC(=O)C2(c3cc(NC4=NOC(c5cc(Cl)c(F)c(Cl)c5)(C(F)(F)F)C4)ccc3F)CCC2)CC1 (centres unmarked) [III-2]
at least 75%: Aedes aegypti | Plutella xylostella

O=C(NC1CC1)c1nc(NC2=NOC(c3cc(Cl)cc(Cl)c3)(C(F)(F)F)C2)ccc1Cl (centres unmarked) [I-96]
at least 75%: Plutella xylostella

CCN(C1=NOC(c2cc(Cl)cc(Cl)c2)(C(F)(F)F)C1)c1ccc(OC(F)(F)F)c(C(=O)N(C)c2ccccn2)c1 (centres unmarked) [I-210]
at least 75%: Heliothis virescens | Aedes aegypti | Anthonomus grandis | Myzus persicae

O=C(NC1(c2ncccn2)CC1)c1cc(NC2=NOC(c3ccc(F)c(Cl)c3)(C(F)(F)F)C2)ccc1Cl (centres unmarked) [I-113]
at least 75%: Dichromothrips corbetti | Plutella xylostella

COc1cnc(NC(=O)c2cc(NC3=NOC(c4cc(Cl)c(F)c(Cl)c4)(C(F)(F)F)C3)ccc2Cl)c(F)c1 (centres unmarked) [I-251]
at least 75%: Heliothis virescens | Aedes aegypti | Anthonomus grandis | Myzus persicae

COCN(C1=NOC(c2cc(Cl)c(F)c(Cl)c2)(C(F)(F)F)C1)c1ccc(Cl)c(C(=O)Nc2ccc(Cl)cn2)c1 (centres unmarked) [I-196]
at least 75%: Heliothis virescens | Aedes aegypti | Anthonomus grandis | Myzus persicae

N#CC1(NC(=O)c2nc(NC3=NOC(c4cc(Cl)cc(Cl)c4)(C(F)(F)F)C3)ccc2Cl)CC1 (centres unmarked) [I-83]
at least 75%: Dichromothrips corbetti

O=C(Nc1ccccn1)c1cc(NC2=NOC(c3cc(Cl)c(F)c(Cl)c3)(C(F)(F)F)C2)ccc1Cl (centres unmarked) [I-243]
at least 75%: Heliothis virescens | Aedes aegypti | Anthonomus grandis | Myzus persicae

N#CCNC(=O)c1cc(NC2=NOC(c3cc(Cl)c(F)c(Cl)c3)(C(F)(F)F)C2)ccc1Cl (centres unmarked) [I-29]
at least 75%: Dichromothrips corbetti | Plutella xylostella

CCN(C1=NOC(c2cc(Cl)cc(Cl)c2)(C(F)(F)F)C1)c1ccc(F)c(C(=O)Nc2ccc(C#N)cn2)c1 (centres unmarked) [I-226]
at least 75%: Heliothis virescens | Aedes aegypti | Anthonomus grandis | Myzus persicae
